The chains behind the UniProt entries cited, without tags or fusion partners. Where a name states a change or a piece, a line headed by the entry shows the natural chain unless it says otherwise.
UniProt Q9UNA4: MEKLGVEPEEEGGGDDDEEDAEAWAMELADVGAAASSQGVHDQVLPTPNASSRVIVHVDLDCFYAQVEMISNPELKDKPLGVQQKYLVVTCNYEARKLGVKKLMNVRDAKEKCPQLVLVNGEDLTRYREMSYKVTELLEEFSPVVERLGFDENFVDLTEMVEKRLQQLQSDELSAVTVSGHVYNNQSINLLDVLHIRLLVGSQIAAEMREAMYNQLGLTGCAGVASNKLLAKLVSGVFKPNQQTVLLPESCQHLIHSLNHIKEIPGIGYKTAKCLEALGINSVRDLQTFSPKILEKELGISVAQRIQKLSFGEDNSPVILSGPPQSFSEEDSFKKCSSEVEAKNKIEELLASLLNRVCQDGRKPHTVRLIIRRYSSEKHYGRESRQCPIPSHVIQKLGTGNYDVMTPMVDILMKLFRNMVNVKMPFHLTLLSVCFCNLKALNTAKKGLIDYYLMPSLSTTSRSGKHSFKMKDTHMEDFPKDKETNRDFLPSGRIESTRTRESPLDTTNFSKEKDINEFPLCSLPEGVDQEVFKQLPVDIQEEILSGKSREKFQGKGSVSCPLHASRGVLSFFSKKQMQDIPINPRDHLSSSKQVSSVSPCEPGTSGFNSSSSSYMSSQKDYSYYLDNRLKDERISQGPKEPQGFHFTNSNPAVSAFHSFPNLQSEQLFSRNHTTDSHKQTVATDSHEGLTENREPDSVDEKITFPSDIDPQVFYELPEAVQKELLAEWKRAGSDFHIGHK

Several values for one entry are separate records, joined by “and”; a condition that tells them apart may be missing. Equal values may be shown once. About 4,000 (1%) of roughly 390,000 compounds were called active. This list was built around the results that the source calls inconclusive (neither active nor inactive); the mix of calls is not that of the screen. The call rests on the fitted dose curve; in most records, active means well fitted inhibition curve with a large enough effect; inconclusive means small, poorly fitted or top-dose-only effect, or another doubt; inactive means no such curve, though single readings can be large or run the other way. Where the call is inconclusive, the potency comes from a doubtful curve fit.
The molecules below were run against DNA polymerase iota (Homo sapiens) (UniProt Q9UNA4) (assay: qHTS for Inhibitors of Polymerase Iota). Settings: Pol iota fluorescent replication assay, 10 min; series mostly up to 115 µM.
In short: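 Pol iota at 10 nM preincubated 15 min with compounds at room temperature; reaction started with fluorescent substrate, 50 nM final. Fluorescence read kinetically at 0 and 10 min; buffer-only wells as negative control.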
With `CC(=O)Nc1cccc(-c2nc3ccccc3s2)c1` the Potency was “inactive”.
In the case of `CCOC(=O)C1CCCN(C(=O)c2cnn3c(C(F)(F)F)cc(-c4ccccc4)nc23)C1` (stereo not drawn), the Potency is reported as inconclusive: 89.1 µM [inhibitor, single point].
With `COc1ccc(-c2nc3ccc(NC(=O)COC(C)=O)cc3c(=O)n2Cc2ccccc2)cc1COc1ccc(NC(C)=O)cc1` the Potency was inconclusive: 20 µM [inhibitor, single point].
For `c1ccc(-c2csc3ncnc(N4CCc5ccccc5C4)c23)cc1`, the Potency was inconclusive: 79.4 µM [inhibitor, partial curve, poor fit].
With `Cc1ccc2c(=O)cc(C(=O)Nc3ccc(S(=O)(=O)Nc4nc(C)cc(C)n4)cc3)oc2c1` the Potency was inconclusive: 50.1 µM [inhibitor, partial curve].
With `Cn1cnc(C(=O)N2CCN(c3ccccc3)CC2)c1C(=O)N1CCN(c2ccccc2)CC1` the Potency was inconclusive: 56.2 µM [inhibitor, partial curve, poor fit].
For `O=c1c[n+]([O-])c2ccccc2n1OCc1c(F)cccc1F`, the Potency was inconclusive: 8.91 µM [inhibitor, single point].
In the case of `COc1cc(NC(=O)CCC(=O)c2cccs2)cc(OC)c1`, the Potency is reported as inconclusive: 25.1 µM [inhibitor, full curve, poor fit].
`O=C(C1CCN(c2ncnc3c2nc2n3CCCCC2)CC1)N1CCN(c2ccc(F)cc2)CC1` was tested, and the Potency was inconclusive: 56.2 µM [inhibitor, partial curve, poor fit].
`O=C(NCC1CC1)c1ccc2nc(-c3ccoc3)c(-c3ccoc3)nc2c1` was tested, and the Potency was “inactive”.
In the case of `CCCN(CCC)CCNC(=O)CN1C(=O)COc2ccc(S(=O)(=O)N3CCC(C)CC3)cc21`, the Potency is reported as “inactive”.
For `C=CCn1c(=S)[nH]c2cc(-c3ccccc3)sc2c1=O`, the Potency was inconclusive: 89.1 µM [inhibitor, partial curve, poor fit].
For `CCc1cc2c(=O)c(-c3nc4ccccc4n3C)c(C)oc2c(CN2CCN(CCO)CC2)c1O`, the Potency was inconclusive: 89.1 µM [inhibitor, single point].
In the case of `O=C(N/N=C/c1cccc(OC(=O)c2cccc(Br)c2)c1)c1ccncc1`, the Potency is reported as inconclusive: 28.2 µM [inhibitor, full curve, poor fit].
For `CCOC(=O)C1CCN(C(=O)c2cccc(S(=O)(=O)N(CC)c3ccccc3)c2)CC1`, the Potency was inconclusive: 2.82 µM [inhibitor, partial curve, poor fit].
For `CCC1=NN2C(=N)/C(=C/c3ccc(OS(=O)(=O)c4ccccc4)c(OC)c3)C(=O)N=C2S1`, the Potency was inconclusive: 25.1 µM [inhibitor, single point].
With `Cc1cc(C(=O)OCC(=O)Nc2cc(S(=O)(=O)N3CCOCC3)ccc2Cl)c(C)o1` the Potency was inconclusive: 56.2 µM [inhibitor, partial curve, poor fit].
In the case of `COc1cccc(CSc2nnc(-c3ccc(F)cc3)o2)c1`, the Potency is reported as inconclusive: 56.2 µM [inhibitor, partial curve].
In the case of `CN(C)CCCN1c2ccccc2Sc2ccc(C(F)(F)F)cc21`, the Potency is reported as inconclusive: 7.94 µM [inhibitor, partial curve, poor fit].
With `OC1CCC(Nc2ncnc3sccc23)CC1` (stereo not drawn) the Potency was inconclusive: 50.1 µM [inhibitor, partial curve, poor fit].
In the case of `O=C(NCc1ccco1)c1ccccc1NS(=O)(=O)c1ccc2c(c1)OCCO2`, the Potency is reported as inconclusive: 28.2 µM [inhibitor, partial curve, poor fit].
For `Cc1cc2[nH]c3c(c[n+](C)c4ccccc34)c2cc1C`, the Potency was active: 4.47 µM.
`CCOC(=O)c1ccc(OCC2c3cc(OC)c(OC)cc3CCN2C(=O)c2ccc(S(=O)(=O)N3CCCC3)cc2)cc1` (stereo not drawn) was tested, and the Potency was “inactive”.
For `O=C(O)CSc1nc2ccccc2[nH]1`, the Potency was “inactive”.
For `C=CCn1c(O)c(CN2CCN(Cc3ccccc3)CC2)c(C)c(C#N)c1=O`, the Potency was inconclusive: 35.5 µM [inhibitor, partial curve, poor fit].
With `CC1=C(C)C(=O)C(N2CCOCC2)=CC1=O` the Potency was “inactive”.
For `CCC(C)NC(=O)NC(=O)CSc1nnc(-c2ccccc2F)n1C1CC1` (stereo not drawn), the Potency was “inactive”.
For `COc1ccc(C)cc1S(=O)(=O)NCC(c1cccs1)S(=O)(=O)c1ccc(C)cc1` (stereo not drawn), the Potency was “inactive”.
With `O=C(CN1CCCCC1)NC(=O)NC1CCCC1` the Potency was “inactive”.
In the case of `O=C(Nc1cnn(Cc2c(Cl)cccc2Cl)c1)c1ccc([N+](=O)[O-])cc1`, the Potency is reported as inconclusive: 31.6 µM [inhibitor, partial curve, poor fit].
`Cc1ccc(NC(=O)C(C)OC(=O)c2ccc(Cl)nc2)cc1S(=O)(=O)N1CCOCC1` (stereo not drawn) was tested, and the Potency was inconclusive: 15.8 µM [inhibitor, full curve, poor fit].
With `O=C(NCc1ccc2c(c1)CCN2C(=O)c1ccccc1)Nc1cc(F)ccc1F` the Potency was inconclusive: 89.1 µM [inhibitor, single point].
With `COc1cccc(C(=O)Nc2cccc(C(=O)N3CCOCC3)c2)c1` the Potency was active: 89.1 µM.
In the case of `Cc1ccc(OCC(=O)NNC(=O)Cn2c(=O)cnc3ccccc32)cc1`, the Potency is reported as inconclusive: 100 µM [inhibitor, partial curve, poor fit].
With `CCOC(=O)c1c(C)sc(-c2c(-c3cc(C)ccc3C)[nH]c3c2c(=O)n(C)c(=O)n3C)c1O` the Potency was inconclusive: 70.8 µM [inhibitor, partial curve].
With `O=C(O)CN1C(=O)C2C3CC(C2C1=O)C1C(c2ccc(F)cc2)c2sc(=O)[nH]c2SC31` (stereo not drawn) the Potency was inconclusive: 39.8 µM [inhibitor, partial curve, poor fit].
For `OCC1(Cc2ccc(Cl)cc2)CCN(CCCc2ccccc2)CC1`, the Potency was “inactive”.
For `COc1cccc(NC2c3ccccc3C(=O)N2Cc2ccccc2Cl)c1` (stereo not drawn), the Potency was inconclusive: 89.1 µM [inhibitor, single point].
For `O=C(Cc1cc(=O)[nH][nH]1)N/N=C/c1c(Cl)cccc1Cl`, the Potency was inconclusive: 3.55 µM [inhibitor, full curve, poor fit] and inconclusive: 2.82 µM [inhibitor, full curve, poor fit].
With `CCCCNC(=O)c1ccc2nc(-c3ccco3)c(-c3ccco3)nc2c1` the Potency was inconclusive: 10 µM [inhibitor, partial curve, poor fit].
For `C[C@H]1CN=C(N(C)C)N1CCCC1CCCCC1`, the Potency was “inactive”.
`O=C(Cn1cc(COc2c(Br)cc(F)cc2Br)nn1)c1ccc(O)cc1` was tested, and the Potency was inconclusive: 3.55 µM [inhibitor, full curve, poor fit].
For `O=C(CSc1nnc2scc(-c3ccc(F)cc3)n12)NCc1ccco1`, the Potency was inconclusive: 112 µM [inhibitor, single point].
With `CC(Sc1nc(-c2ccccc2)cc(C(F)(F)F)n1)C(=O)Nc1sc2c(c1C#N)CCC2` (stereo not drawn) the Potency was inconclusive: 28.2 µM [inhibitor, single point].
`O=c1oc(-c2ccco2)nc2sc3c(c12)CCCC3` was tested, and the Potency was inconclusive: 14.1 µM [inhibitor, full curve].
With `O=c1c2ccccc2cnn1Cc1n[nH]c(=S)n1-c1ccccc1F` the Potency was inconclusive: 79.4 µM [inhibitor, partial curve, poor fit].
For `Nc1nnc(CC(=O)Nc2ccccc2)s1`, the Potency was “inactive”.
With `COc1ccc2nc(NC(=O)c3nc(S(=O)(=O)Cc4ccccc4)ncc3Cl)sc2c1` the Potency was inconclusive: 79.4 µM [inhibitor, partial curve, poor fit].
`Cc1ccc(NC(=O)CSc2n[nH]c(-c3ccc(F)cc3)n2)cc1F` was tested, and the Potency was “inactive”.
In the case of `CCOC(=O)C1=C(C)NC(C)=C(C(=O)OCC)C1/C=C/c1ccccc1OC`, the Potency is reported as inconclusive: 56.2 µM [inhibitor, partial curve, poor fit].
`CCCN(CCC)CCNC(=O)c1cc2c(-c3ccc(Cl)cc3)nn(C)c2s1` was tested, and the Potency was “inactive”.
For `CCOC(=O)[C@@H]1[C@H]2COc3ccccc3[C@@H]2N2C(=O)N(c3ccccc3)C(=O)[C@@]12C`, the Potency was inconclusive: 89.1 µM [inhibitor, partial curve, poor fit].
For `CC1(C)Cc2c(C#N)c(N3CCN(C(=O)c4ccccc4Cl)CC3)nc(-c3ccco3)c2CS1`, the Potency was inconclusive: 10 µM [inhibitor, full curve].
In the case of `O=C(Nc1cccc(Cl)c1Cl)c1cc2nc(-c3ccc(Cl)cc3)cc(C(F)(F)F)n2n1`, the Potency is reported as inconclusive: 89.1 µM [inhibitor, single point].
With `COC(=O)c1ccc2c(c1)S(=O)(=O)NC(=NCc1ccco1)S2` the Potency was inconclusive: 15.8 µM [inhibitor, partial curve, poor fit].
In the case of `O=C(Nc1ccc2c(c1)OCCO2)C1CCN(C(=O)c2ccc(F)cc2)CC1`, the Potency is reported as inconclusive: 89.1 µM [inhibitor, partial curve, poor fit].
`C=CCn1c(=O)c(C#N)cc2c(=O)n3ccccc3nc21` was tested, and the Potency was inconclusive: 20 µM [inhibitor, single point].
With `Cc1cnc(C(=O)Nc2nnc(C)s2)cn1` the Potency was inconclusive: 22.4 µM [inhibitor, single point].
For `Cc1cc(C)cc(NC(=O)C(Nc2ccccc2)c2ccccc2)c1` (stereo not drawn), the Potency was inconclusive: 89.1 µM [inhibitor, single point].
With `C=CCN(CC=C)C(=S)Nc1ccc2nsnc2c1` the Potency was inconclusive: 50.1 µM [inhibitor, single point].
With `CC1CCN(C(=O)COC(=O)/C=C/c2ccc(Br)o2)CC1` the Potency was active: 17.8 µM.
`CC(=O)Nc1cccc(-c2nc3ccc(NC(C)=O)cc3[nH]2)c1` was tested, and the Potency was inconclusive: 14.1 µM [inhibitor, full curve, poor fit].
For `CCN(CC)CCNC(=O)c1cc(-c2ccc(Br)s2)nc2ccccc12`, the Potency was inconclusive: 22.4 µM [inhibitor, single point].
Potency means the concentration at half of the fitted maximal effect.
